Results of single-concentration screens

Measurements from “University of Dundee, Small-Polar-MMV Screening Library” (2021), ChEMBL document CHEMBL3988442.

Mtb glucose medium: 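Growth of Mycobacterium tuberculosis over 3 days (7H9 medium with glucose and tyloxapol); the read-out is not stated. Concentration: 50 µM. Higher reads as more growth inhibition (inferred: compounds with an IC50 in retests scored well above the rest). Of about 69,000 compounds tested this way, about 760 (1.1%) reached 50% or more in at least one test.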
Mtb cholesterol medium: 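Whole-cell growth test on Mycobacterium tuberculosis, read after 4 days in a medium based on cholesterol and the lipid DPPC; the read-out is not stated. Tested at 50 µM. Higher reads as more growth inhibition (inferred: compounds with an IC50 in retests scored well above the rest). About 69,000 compounds were tested under these conditions; 0.54% (about 370) showed 50% or more at least once.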

Each number is a percent effect as filed.
The record does not define 0% and 100%; most values in the screen are far below 50% and negative numbers occur (in some assays of this library far below -100).
This is an unselected part of the compounds tested.
Two or more numbers in one place are separate tests of the same structure; such repeats can differ widely.

structure	Mtb glucose medium	Mtb cholesterol medium
Cc1nc(C2CCCN2C(=O)CCOCc2ccccc2)no1 (stereo unspecified)	-17.41%	-13.58%
CSc1nsc(NC(=O)N2CCc3ccccc3C2)n1	17.6%	19.47%
[H][C@]12CCN(C(=O)NC)CC[C@@]1([H])S(=O)(=O)N(CC)C2	-0.9173%	-5.327%
CC1CN(S(=O)(=O)c2cc(S(C)(=O)=O)ccc2Br)c2cccnc2O1 (stereo unspecified)	-12.15% & -3.919%	10.44%
Cl.Cl.O=C(NCc1cncc2c1CCN(C1CCOCC1)C2)c1ccco1	4.552%	-2.632%
NC(=O)CN1CCC(C(=O)NCC(O)c2cccc(F)c2)CC1 (stereo unspecified)	-8.197% & 0.8637%	13.86%
CN(C)C(=O)CCS(=O)(=O)Cc1cc(Cl)c2c(c1)OCO2	-18.79%	-18.25%
CNS(=O)(=O)c1ccc(CCC(=O)NCc2cccc(OC)c2)cc1	-11.22%	-7.919%
COCC1CN(Cc2cccnc2)Cc2nnn(CC3CC3)c21.O=C(O)C(F)(F)F.O=C(O)C(F)(F)F (stereo unspecified)	4.724% & -18.95%	-12.84%
Cc1nn(C)c(C)c1C1CCCN1CC(=O)NC(C1CC1)C1CC1 (stereo unspecified)	30.6%	4.276%
CCOC(=O)N1[C@@H](c2ccco2)[C@@H](C(=O)O)C[C@]12CCCCNC2=O	0.4459%	-3.058%
CCC(C)CNc1ccc2oc(COC)nc2c1 (stereo unspecified)	-45.35%	52.25% & 24.39%
Cc1ccc(N2CCCN(C(=O)CC3CCCO3)CC2)nn1 (stereo unspecified)	23.89%	-5.003%
Cc1ccc(-c2noc(C3CCN3C(=O)c3ccc(=O)[nH]n3)n2)s1 (stereo unspecified)	-5.367%	-1.604% & -7.538%
Cc1ccc(S(C)(=O)=O)cc1C(=O)N(C)Cc1ccco1	9.48% & -5.396%	-3.329%
Cc1cccc(OC(C)C(=O)NCC2(N(C)C)CCCC2)c1 (stereo unspecified)	-31.62%	-15.35%
CC(NCc1nnc2n1CCCC2)c1nc(-c2cccs2)no1 (stereo unspecified)	-17.22% & -6.225%	-7.347%
CCN1CCC(CC(=O)N2CCCCC2CCn2cccn2)CC1 (stereo unspecified)	-11.19%	7.733%
N[C@H]1c2ccccc2C[C@@H]1NC(=O)C1CCN(Cc2ccco2)CC1	-16.72%	-2.652%
Cc1cnn(CC2CCCN2C(=O)CCc2nc3ccccc3[nH]2)c1 (stereo unspecified)	23.37%	21.39%
NC(=O)c1cc(C2CCCN(CCOc3ccc(F)cc3)C2)n[nH]1 (stereo unspecified)	4.365%	4.644%
Cc1nc(C(C)C)sc1C(=O)NCCn1ccnc1	-3.129%	-5.084%
Cc1noc(C(C)C)c1C(=O)NCc1cc(F)cc(F)c1	-8.062%	-12.56%
COc1ccc(C2CC(=O)NCc3nc4ccccn4c32)cn1 (stereo unspecified)	-14.98%	-0.3616%
CCN1CCn2c(C)cnc2C12CCN(C(=O)CC(C)C)CC2.O=C(O)C(F)(F)F.O=C(O)C(F)(F)F	-12.89%	0.09806%
CN(Cc1cc(C(C)(C)C)n[nH]1)C(=O)c1c[nH]nc1-c1cccc(F)c1	-9.717%	4.937%
N[C@H]1CN(S(=O)(=O)c2cccnc2)C[C@@H]1C1CC1	-4.569%	-13.31%
Cc1nnc(NC(=O)CN(C)CC2CCCN2c2cccnn2)s1 (stereo unspecified)	-27.25%	-28% & -8.631%
CC(C)OCc1cccc(CNc2cnn(C)c(=O)c2Cl)c1	12.41%	53.92%
CCN1CCN(C(=O)c2cnc(Cc3c(Cl)cccc3Cl)nc2O)CC1	-4.19%	-18.82%
CC(C)CNC(=O)CCN1C(=O)CCc2cc(F)ccc21	12.46%	7.293%
O=C(c1ccncc1)N1CCC(O)(Cn2ccc3ccncc32)CC1	-8.85%	-15.99%
Cc1ccc2oc(C(=O)N3CCCC(n4nc(C)nc4C)C3)cc2n1 (stereo unspecified)	-19.45%	-11.19%
[H][C@]12CC[C@]([H])(CN(C(=O)CCc3c(C)nn(C)c3C)C1)N(CCOC)C2	10.02% & -3.946%	11.57%
CCN1Cc2nc(OC)c(CNC(=O)C3CCS(=O)(=O)CC3)cc2C1=O	-19.3%	-14.2% & -4.935%
NC(=O)NC(CC(=O)N1CCc2sccc2C1)c1ccccc1F (stereo unspecified)	-0.6302%	3.209%
Cc1ccc2c(c1)SCC(=O)N2CC(=O)N1CCC[C@H]1c1nc(C)no1	-32.3%	1.19% & -22.94%
Cn1cc(-c2ncnc3c2CCN(C(=O)c2cscn2)CC3)cn1	-54.52%	-27.61%
O=C(Nc1ccccc1)C1CN(Cc2cccs2)CC12CCOCC2 (stereo unspecified)	5.511% & -1.159%	-5.656%
CCc1ncc(C(=O)NC(C)(C)CC)s1	10.57% & 12.6%	-2.225%
CSCCc1c(-c2ccccc2)ncn1[C@H]1C[C@@H](C(=O)O)N(C)C1	12.62%	8.628%

For reference, 2 entries once more:

{"structure": "COCC1CN(Cc2cccnc2)Cc2nnn(CC3CC3)c21.O=C(O)C(F)(F)F.O=C(O)C(F)(F)F", "stereo": "stereo unspecified", "Mtb glucose medium": "4.724 & -18.95", "Mtb cholesterol medium": -12.84}
{"structure": "Cc1ccc2c(c1)SCC(=O)N2CC(=O)N1CCC[C@H]1c1nc(C)no1", "Mtb glucose medium": -32.3, "Mtb cholesterol medium": "1.19 & -22.94"}